The test has as its target T1, DJ-1 (rat (endogenous in rat testes)) (UniProt O88767).
T1 sequence: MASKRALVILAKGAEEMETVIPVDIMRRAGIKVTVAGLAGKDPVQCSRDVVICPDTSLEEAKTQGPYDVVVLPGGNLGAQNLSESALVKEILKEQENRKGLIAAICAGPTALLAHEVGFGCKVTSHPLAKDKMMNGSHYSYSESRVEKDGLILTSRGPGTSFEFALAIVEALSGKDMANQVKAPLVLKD
Kind of test: co-IP; rat testes homogenate (about 500 ug protein in 1 mL), precleared with Protein A/G PLUS-Agarose and normal goat IgG; goat anti-DJ-1 antibody 4 h at 4°C, then Protein A/G PLUS-Agarose overnight at 4°C; normal goat IgG as negative control; blot with anti-NDUFS3 and anti-DJ-1; testes of control rats and of ornidazole (ORN)-treated rats (400 mg/kg daily, 14 days).

Results are given in words; binding and its absence hold for the method and conditions named. In cells and extracts the contact can be indirect. Binding calls can cover weak binding; strength is not graded here.

In the case of “nicotinamide adenine dinucleotide dehydrogenase (ubiquinone) Fe-S protein 3 (NDUFS3) (rat (endogenous in rat testes))”, the binding entry was “binds”.

These data come from publication PMC5903298.
